Data as given in publication PMC12436307.

What follows are substances tested against T1, LONESOME HIGHWAY (LHW) (Arabidopsis thaliana) (UniProt Q9XIN0) (assay: two-hybrid; Matchmaker Gold Yeast Two-Hybrid System; pGADT7 and pGBKT7 fusions; growth on SD -Leu -Trp -His -Ade with 3 mM 3AT, 30°C for 3 days).
T1 sequence: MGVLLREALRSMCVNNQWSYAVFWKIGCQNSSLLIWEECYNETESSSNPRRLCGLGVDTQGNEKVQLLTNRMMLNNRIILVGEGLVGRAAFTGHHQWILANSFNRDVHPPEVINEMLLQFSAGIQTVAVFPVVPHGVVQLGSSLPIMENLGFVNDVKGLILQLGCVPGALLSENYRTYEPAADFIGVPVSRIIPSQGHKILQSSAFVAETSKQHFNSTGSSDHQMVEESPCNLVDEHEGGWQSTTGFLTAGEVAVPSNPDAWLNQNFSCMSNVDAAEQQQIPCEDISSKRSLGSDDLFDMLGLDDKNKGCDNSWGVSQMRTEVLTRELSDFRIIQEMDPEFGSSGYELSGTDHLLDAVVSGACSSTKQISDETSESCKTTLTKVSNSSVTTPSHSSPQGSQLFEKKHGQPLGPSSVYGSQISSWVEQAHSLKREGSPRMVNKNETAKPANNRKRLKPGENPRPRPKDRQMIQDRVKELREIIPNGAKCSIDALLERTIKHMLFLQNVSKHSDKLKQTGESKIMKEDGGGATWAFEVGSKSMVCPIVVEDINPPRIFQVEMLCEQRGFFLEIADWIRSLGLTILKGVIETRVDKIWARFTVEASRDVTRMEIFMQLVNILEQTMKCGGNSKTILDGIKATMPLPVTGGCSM

binding, binds:
SACL1 (Arabidopsis thaliana), SACL2 (Arabidopsis thaliana), SACL3 (Arabidopsis thaliana)

Results are given in words; binding and its absence hold for the method and conditions named. Binding calls can cover weak binding; strength is not graded here.
